Test results as given in PMC10580074.
These are yes or no findings as the source states them, for the method shown. In cells and extracts the contact can be indirect. Some entries that bind do so weakly or less than the wild type.

Protein sequences, listed by entry. Tags and fused reporters are not part of them. Residues count along the entry.
UniProt P36544, residues 23-502: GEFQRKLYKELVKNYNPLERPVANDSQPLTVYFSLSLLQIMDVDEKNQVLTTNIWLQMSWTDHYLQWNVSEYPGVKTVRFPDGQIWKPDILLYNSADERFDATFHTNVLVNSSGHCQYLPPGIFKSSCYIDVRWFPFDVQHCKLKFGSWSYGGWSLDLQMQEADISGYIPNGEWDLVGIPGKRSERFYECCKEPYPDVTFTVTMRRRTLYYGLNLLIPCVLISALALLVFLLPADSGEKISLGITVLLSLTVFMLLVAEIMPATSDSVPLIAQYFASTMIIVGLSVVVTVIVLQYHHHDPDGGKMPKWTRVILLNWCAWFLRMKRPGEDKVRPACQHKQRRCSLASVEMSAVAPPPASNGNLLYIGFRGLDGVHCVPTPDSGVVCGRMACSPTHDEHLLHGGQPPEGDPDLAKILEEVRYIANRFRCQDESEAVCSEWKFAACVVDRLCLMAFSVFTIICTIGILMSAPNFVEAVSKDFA

Biological target: T1, Secreted Ly6/uPAR-Related Protein 1 (SLURP-1), recombinant (human) (UniProt P55000)
T1 sequence: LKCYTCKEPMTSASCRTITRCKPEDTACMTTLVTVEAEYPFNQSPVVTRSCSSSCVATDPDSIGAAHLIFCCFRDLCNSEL
Experiment: pull-down; SLURP-1 or Oncotag (1 mg/mL) coupled to PureProteome magnetic beads, blocked by 500 mM ethanolamine + 5% non-fat dry milk; tumour lysate (2% Triton X-100, diluted 10 times with TBS: 100 mM TRIS, 150 mM NaCl, pH 8.0) incubated 16 h at 4°C; washes TBS, TBS + 1 M NaCl + 0.5% Triton X-100, TBS + 0.5% Triton X-100; elution 200 mM glycine pH 2.6; Western blot; only the target purified

Substance	binding
epidermal growth factor receptor (EGFR) (from UniProt P00533 25-1210)	binds
α7-type nicotinic acetylcholine receptor (α7-nAChR) (from UniProt P36544 23-502)	binds
